Results reported in PMC8612733.
No constants are given. Whether binding was seen depends on the method and setting. Binding seen in cells or lysates may run through a third protein. Here binding means that the protein was enriched with, or labelled near, the bait; the list need not be complete. Blank lines part the entries; values can stand above or below the molecule they belong to.

The chains behind the UniProt entries cited, without tags or fusion partners.
UniProt P67809: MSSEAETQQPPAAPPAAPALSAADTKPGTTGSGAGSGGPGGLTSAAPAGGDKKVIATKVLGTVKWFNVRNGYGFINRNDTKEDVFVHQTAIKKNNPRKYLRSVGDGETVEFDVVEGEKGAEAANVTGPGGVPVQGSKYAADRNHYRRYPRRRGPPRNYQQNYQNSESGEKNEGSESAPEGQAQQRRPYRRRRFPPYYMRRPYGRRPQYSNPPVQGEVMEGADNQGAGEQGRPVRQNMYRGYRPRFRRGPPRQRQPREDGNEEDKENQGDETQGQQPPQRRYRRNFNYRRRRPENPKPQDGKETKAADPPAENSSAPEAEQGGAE
UniProt Q9UKV8: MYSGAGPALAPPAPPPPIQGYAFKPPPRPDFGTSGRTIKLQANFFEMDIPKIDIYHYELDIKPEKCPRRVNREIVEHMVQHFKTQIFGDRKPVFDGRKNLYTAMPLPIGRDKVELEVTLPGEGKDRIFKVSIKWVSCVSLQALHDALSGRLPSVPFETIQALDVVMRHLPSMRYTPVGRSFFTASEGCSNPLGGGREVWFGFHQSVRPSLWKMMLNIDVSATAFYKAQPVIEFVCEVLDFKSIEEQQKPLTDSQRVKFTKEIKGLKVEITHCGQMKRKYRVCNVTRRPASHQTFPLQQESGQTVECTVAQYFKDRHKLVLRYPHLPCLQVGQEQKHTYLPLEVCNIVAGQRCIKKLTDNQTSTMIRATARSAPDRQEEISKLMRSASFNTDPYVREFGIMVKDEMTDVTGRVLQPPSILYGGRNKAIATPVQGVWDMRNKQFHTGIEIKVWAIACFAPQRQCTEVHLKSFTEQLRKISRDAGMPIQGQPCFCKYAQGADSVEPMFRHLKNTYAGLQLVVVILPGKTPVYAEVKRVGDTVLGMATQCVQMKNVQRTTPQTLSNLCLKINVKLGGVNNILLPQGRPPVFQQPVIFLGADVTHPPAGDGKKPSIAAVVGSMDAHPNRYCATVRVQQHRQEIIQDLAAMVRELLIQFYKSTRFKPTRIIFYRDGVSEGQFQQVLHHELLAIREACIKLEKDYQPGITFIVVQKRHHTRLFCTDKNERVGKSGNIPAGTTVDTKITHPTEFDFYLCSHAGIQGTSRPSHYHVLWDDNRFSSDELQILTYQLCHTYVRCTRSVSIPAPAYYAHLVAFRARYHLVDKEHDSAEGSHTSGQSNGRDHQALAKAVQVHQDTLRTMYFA
UniProt O60506: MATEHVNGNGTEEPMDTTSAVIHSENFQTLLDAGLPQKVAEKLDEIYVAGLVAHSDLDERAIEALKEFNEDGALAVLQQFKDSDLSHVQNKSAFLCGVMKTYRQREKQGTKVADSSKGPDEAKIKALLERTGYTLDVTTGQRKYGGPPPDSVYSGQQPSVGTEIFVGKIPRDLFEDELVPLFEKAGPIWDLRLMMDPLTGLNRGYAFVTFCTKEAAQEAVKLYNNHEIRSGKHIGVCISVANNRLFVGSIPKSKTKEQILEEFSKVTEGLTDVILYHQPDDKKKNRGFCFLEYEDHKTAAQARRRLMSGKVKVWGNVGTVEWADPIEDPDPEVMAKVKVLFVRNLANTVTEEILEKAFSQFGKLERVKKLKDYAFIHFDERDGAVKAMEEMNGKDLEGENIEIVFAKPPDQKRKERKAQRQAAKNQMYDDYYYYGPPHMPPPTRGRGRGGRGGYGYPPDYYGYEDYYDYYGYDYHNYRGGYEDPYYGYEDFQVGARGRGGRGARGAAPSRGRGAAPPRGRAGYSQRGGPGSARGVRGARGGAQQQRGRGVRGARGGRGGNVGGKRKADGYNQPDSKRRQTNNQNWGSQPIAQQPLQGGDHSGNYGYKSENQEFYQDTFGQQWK

How the values were obtained:
[1] = target: 3xFlag-tagged YBX1 (human) (UniProt P67809); assay: affinity purification with mass spectrometry; lysate of HEK293T cells transfected with 3xFlag-YBX1 in RIPA buffer; ANTI-FLAG M2 Affinity Gel, 3 hr at 4 °C; washed with RIPA buffer; eluted with 3xFlag peptide; LC-MS
EGFP-tagged YBX1 (human) = EGFP-tagged YBX1 (human) (UniProt P67809); assay: affinity purification with mass spectrometry; lysate of HEK293T cells transfected with EGFP-YBX1 in RIPA buffer; GFP-Trap agarose beads, 3 hr at 4 °C; washed with RIPA buffer; eluted in Laemmli buffer at 95 °C; LC-MS

- binding [1]: binds
- binding (EGFP-tagged YBX1 (human)): binds
Molecule: Ago2 (from UniProt Q9UKV8 1-859)

- binding [1]: binds
- binding (EGFP-tagged YBX1 (human)): binds
Molecule: SYNCRIP (from UniProt O60506 1-623)

- binding [1]: binds
- binding (EGFP-tagged YBX1 (human)): binds
B1: MOV10 (protein, UniProt Q9HCE1 1-1003)
chain: MPSKFSCRQLREAGQCFESFLVVRGLDMETDRERLRTIYNRDFKISFGTPAPGFSSMLYGMKIANLAYVTKTRVRFFRLDRWADVRFPEKRRMKLGSDISKHHKSLLAKIFYDRAEYLHGKHGVDVEVQGPHEARDGQLLIRLDLNRKEVLTLRLRNGGTQSVTLTHLFPLCRTPQFAFYNEDQELPCPLGPGECYELHVHCKTSFVGYFPATVLWELLGPGESGSEGAGTFYIARFLAAVAHSPLAAQLKPMTPFKRTRITGNPVVTNRIEEGERPDRAKGYDLELSMALGTYYPPPRLRQLLPMLLQGTSIFTAPKEIAEIKAQLETALKWRNYEVKLRLLLHLEELQMEHDIRHYDLESVPMTWDPVDQNPRLLTLEVPGVTESRPSVLRGDHLFALLSSETHQEDPITYKGFVHKVELDRVKLSFSMSLLSRFVDGLTFKVNFTFNRQPLRVQHRALELTGRWLLWPMLFPVAPRDVPLLPSDVKLKLYDRSLESNPEQLQAMRHIVTGTTRPAPYIIFGPPGTGKTVTLVEAIKQVVKHLPKAHILACAPSNSGADLLCQRLRVHLPSSIYRLLAPSRDIRMVPEDIKPCCNWDAKKGEYVFPAKKKLQEYRVLITTLITAGRLVSAQFPIDHFTHIFIDEAGHCMEPESLVAIAGLMEVKETGDPGGQLVLAGDPRQLGPVLRSPLTQKHGLGYSLLERLLTYNSLYKKGPDGYDPQFITKLLRNYRSHPTILDIPNQLYYEGELQACADVVDRERFCRWAGLPRQGFPIIFHGVMGKDEREGNSPSFFNPEEAATVTSYLKLLLAPSSKKGKARLSPRSVGVISPYRKQVEKIRYCITKLDRELRGLDDIKDLKVGSVEEFQGQERSVILISTVRSSQSFVQLDLDFNLGFLKNPKRFNVAVTRAKALLIIVGNPLLLGHDPDWKVFLEFCKENGGYTGCPFPAKLDLQQGQNLLQGLSKLSPSTSGPHSHDYLPQEREGEGGLSLQVEPEWRNEL

- binding [1]: binds
- binding (EGFP-tagged YBX1 (human)): binds
B2: EDC4 (protein, UniProt Q6P2E9 1-1401)
chain: MASCASIDIEDATQHLRDILKLDRPAGGPSAESPRPSSAYNGDLNGLLVPDPLCSGDSTSANKTGLRTMPPINLQEKQVICLSGDDSSTCIGILAKEVEIVASSDSSISSKARGSNKVKIQPVAKYDWEQKYYYGNLIAVSNSFLAYAIRAANNGSAMVRVISVSTSERTLLKGFTGSVADLAFAHLNSPQLACLDEAGNLFVWRLALVNGKIQEEILVHIRQPEGTPLNHFRRIIWCPFIPEESEDCCEESSPTVALLHEDRAEVWDLDMLRSSHSTWPVDVSQIKQGFIVVKGHSTCLSEGALSPDGTVLATASHDGYVKFWQIYIEGQDEPRCLHEWKPHDGRPLSCLLFCDNHKKQDPDVPFWRFLITGADQNRELKMWCTVSWTCLQTIRFSPDIFSSVSVPPSLKVCLDLSAEYLILSDVQRKVLYVMELLQNQEEGHACFSSISEFLLTHPVLSFGIQVVSRCRLRHTEVLPAEEENDSLGADGTHGAGAMESAAGVLIKLFCVHTKALQDVQIRFQPQLNPDVVAPLPTHTAHEDFTFGESRPELGSEGLGSAAHGSQPDLRRIVELPAPADFLSLSSETKPKLMTPDAFMTPSASLQQITASPSSSSSGSSSSSSSSSSSLTAVSAMSSTSAVDPSLTRPPEELTLSPKLQLDGSLTMSSSGSLQASPRGLLPGLLPAPADKLTPKGPGQVPTATSALSLELQEVEPLGLPQASPSRTRSPDVISSASTALSQDIPEIASEALSRGFGSSAPEGLEPDSMASAASALHLLSPRPRPGPELGPQLGLDGGPGDGDRHNTPSLLEAALTQEASTPDSQVWPTAPDITRETCSTLAESPRNGLQEKHKSLAFHRPPYHLLQQRDSQDASAEQSDHDDEVASLASASGGFGTKVPAPRLPAKDWKTKGSPRTSPKLKRKSKKDDGDAAMGSRLTEHQVAEPPEDWPALIWQQQRELAELRHSQEELLQRLCTQLEGLQSTVTGHVERALETRHEQEQRRLERALAEGQQRGGQLQEQLTQQLSQALSSAVAGRLERSIRDEIKKTVPPCVSRSLEPMAGQLSNSVATKLTAVEGSMKENISKLLKSKNLTDAIARAAADTLQGPMQAAYREAFQSVVLPAFEKSCQAMFQQINDSFRLGTQEYLQQLESHMKSRKAREQEAREPVLAQLRGLVSTLQSATEQMAATVAGSVRAEVQHQLHVAVGSLQESILAQVQRIVKGEVSVALKEQQAAVTSSIMQAMRSAAGTPVPSAHLDCQAQQAHILQLLQQGHLNQAFQQALTAADLNLVLYVCETVDPAQVFGQPPCPLSQPVLLSLIQQLASDLGTRTDLKLSYLEEAVMHLDHSDPITRDHMGSVMAQVRQKLFQFLQAEPHNSLGKAARRLSLMLHGLVTPSLP
